Laboratory results as given in the supplement of paper PMC8728848.
The list shows a part of the results.

Key:
Test in all cases: glycan array binding signal (z-score within array); higher = stronger binding
Details in all cases: glycan notation: IUPAC condensed, linker removed
[1] = molecular target: Fuc(a1-2)Gal(b1-4)GlcNAc(b1-3)Gal(b1-4)GlcNAc(b1-2)Man(a1-3)[Fuc(a1-2)Gal(b1-4)GlcNAc(b1-3)Gal(b1-4)GlcNAc(b1-2)Man(a1-6)]Man(b1-4)GlcNAc(b1-4)GlcNAc
Summary of the method: (§1)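 Glycan array data were curated from 3228 arrays in the Consortium for Functional Glycomics database and kept only where the protein sequence was available. Glycan names were converted to IUPAC-condensed notation, and columns mapping to the same glycan were averaged. The binding signal is a within-array Z-score, averaged across arrays of the same protein sequence at different concentrations or buffers and across linkers. Negative Z-scores can be read as non-binding.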

[2] = molecular target: Fuc(a1-2)Gal(b1-4)GlcNAc(b1-3)Gal(b1-4)GlcNAc(b1-3)Gal(b1-4)GlcNAc
Summary of the method: as §1

[3] = molecular target: Fuc(a1-2)Gal(b1-4)GlcNAc(b1-3)GalNAc
Summary of the method: as §1

[4] = molecular target: Fuc(a1-2)Gal(b1-4)GlcNAc(b1-3)[Fuc(a1-2)Gal(b1-4)GlcNAc(b1-6)]GalNAc
Summary of the method: as §1

[5] = molecular target: Fuc(a1-2)Gal(b1-4)GlcNAc(b1-3)[Fuc(a1-3)[Gal(b1-4)]GlcNAc(b1-6)]Gal(b1-4)Glc
Summary of the method: as §1

[6] = molecular target: Fuc(a1-2)Gal(b1-4)GlcNAc(b1-6)GalNAc
Summary of the method: as §1

[7] = molecular target: Fuc(a1-2)Gal(b1-4)GlcNAc6S
Summary of the method: as §1

[8] = molecular target: Fuc(a1-2)Gal(b1-4)[Fuc(a1-3)]GlcNAc
Summary of the method: as §1

[9] = molecular target: Fuc(a1-2)Gal(b1-4)[Fuc(a1-3)]GlcNAc(b1-2)Man(a1-3)[Fuc(a1-2)Gal(b1-4)[Fuc(a1-3)]GlcNAc(b1-2)Man(a1-6)]Man(b1-4)GlcNAc(b1-4)[Fuc(a1-6)]GlcNAc
Summary of the method: as §1

[10] = molecular target: Fuc(a1-2)Gal(b1-4)[Fuc(a1-3)]GlcNAc(b1-2)[Fuc(a1-2)Gal(b1-4)[Fuc(a1-3)]GlcNAc(b1-4)]Man(a1-3)[Fuc(a1-2)Gal(b1-4)[Fuc(a1-3)]GlcNAc(b1-2)Man(a1-6)]Man(b1-4)GlcNAc(b1-4)GlcNAc
Summary of the method: as §1

[11] = molecular target: Fuc(a1-2)Gal(b1-4)[Fuc(a1-3)]GlcNAc(b1-3)Gal(b1-4)[Fuc(a1-3)]GlcNAc
Summary of the method: as §1

[12] = molecular target: Fuc(a1-2)Gal(b1-4)[Fuc(a1-3)]GlcNAc(b1-3)Gal(b1-4)[Fuc(a1-3)]GlcNAc(b1-3)Gal(b1-4)[Fuc(a1-3)]GlcNAc
Summary of the method: as §1

[13] = molecular target: Fuc(a1-2)Gal(b1-4)[Fuc(a1-3)]GlcNAc(b1-3)GalNAc
Summary of the method: as §1

[14] = molecular target: Fuc(a1-2)Gal(b1-4)[Fuc(a1-3)]GlcNAc(b1-3)[Neu5Ac(a2-6)Gal(b1-4)GlcNAc(b1-6)]Gal(b1-4)Glc
Summary of the method: as §1

[15] = molecular target: Fuc(a1-2)Gal3S(b1-4)GlcNAc
Summary of the method: as §1

[16] = molecular target: Fuc(a1-2)Gal6S(b1-3)GlcNAc
Summary of the method: as §1

[17] = molecular target: Fuc(a1-2)Gal6S(b1-3)GlcNAc6S
Summary of the method: as §1

Fuc(a1-2)Gal6S(b1-4)Glc = molecular target: Fuc(a1-2)Gal6S(b1-4)Glc
Summary of the method: as §1

[18] = molecular target: Fuc(a1-2)Gal6S(b1-4)Glc6S
Summary of the method: as §1

Fuc(a1-2)[Gal(a1-3)]Gal = molecular target: Fuc(a1-2)[Gal(a1-3)]Gal
Summary of the method: as §1

[19] = molecular target: Fuc(a1-2)[Gal(a1-3)]Gal(b1-3)GalNAc
Summary of the method: as §1

[20] = molecular target: Fuc(a1-2)[Gal(a1-3)]Gal(b1-3)GalNAc(b1-3)Gal(a1-4)Gal(b1-4)Glc
Summary of the method: as §1

[21] = molecular target: Fuc(a1-2)[Gal(a1-3)]Gal(b1-3)GlcNAc
Summary of the method: as §1

[22] = molecular target: Fuc(a1-2)[Gal(a1-3)]Gal(b1-3)GlcNAc(b1-2)Man(a1-3)[Fuc(a1-2)[Gal(a1-3)]Gal(b1-3)GlcNAc(b1-2)Man(a1-6)]Man(b1-4)GlcNAc(b1-4)GlcNAc
Summary of the method: as §1

[23] = molecular target: Fuc(a1-2)[Gal(a1-3)]Gal(b1-3)GlcNAc(b1-2)Man(a1-3)[Fuc(a1-2)[Gal(a1-3)]Gal(b1-3)GlcNAc(b1-2)Man(a1-6)]Man(b1-4)GlcNAc(b1-4)[Fuc(a1-6)]GlcNAc
Summary of the method: as §1

[24] = molecular target: Fuc(a1-2)[Gal(a1-3)]Gal(b1-3)GlcNAc(b1-3)GalNAc
Summary of the method: as §1

[25] = molecular target: Fuc(a1-2)[Gal(a1-3)]Gal(b1-3)GlcNAc(b1-6)GalNAc
Summary of the method: as §1

[26] = molecular target: Fuc(a1-2)[Gal(a1-3)]Gal(b1-4)Glc
Summary of the method: as §1

[27] = molecular target: Fuc(a1-2)[Gal(a1-3)]Gal(b1-4)GlcNAc
Summary of the method: as §1

[28] = molecular target: Fuc(a1-2)[Gal(a1-3)]Gal(b1-4)GlcNAc(b1-2)Man
Summary of the method: as §1

B1: Langerin K299A/K313A (Homo sapiens), Q9UJ71 (protein)
chain: STLNAQIPELKSDLEKASALNTKIRALQGSLENMSKLLKRQNDILQVVSQGWKYFKGNFYYFSLIPKTWYSAEQFCVSRNSHLTSVTSESEQEFLYKTAGGLIYWIGLTKAGMEGDWSWVDDTPFNKVQSARFWIPGEPNNAGNNEHCGNIAAPSLQAWNDAPCDATFLFICKRPYVPSEP
glycan array binding signal (z-score) [1]: 0.798 | glycan array binding signal (z-score) [2]: 0.332 | glycan array binding signal (z-score) [3]: 0.147 | glycan array binding signal (z-score) [4]: 1.58 | glycan array binding signal (z-score) [5]: -1.06 | glycan array binding signal (z-score) [6]: 1.66 | glycan array binding signal (z-score) [7]: -0.822 | glycan array binding signal (z-score) [8]: -0.172 | glycan array binding signal (z-score) [9]: 0.769 | glycan array binding signal (z-score) [10]: 2.43 | glycan array binding signal (z-score) [11]: -1.13 | glycan array binding signal (z-score) [12]: -0.476 | glycan array binding signal (z-score) [13]: 0.849 | glycan array binding signal (z-score) [14]: 0.735 | glycan array binding signal (z-score) [15]: -0.352 | glycan array binding signal (z-score) [16]: -0.418 | glycan array binding signal (z-score) [17]: 0.002 | glycan array binding signal (z-score) (Fuc(a1-2)Gal6S(b1-4)Glc): 0.031 | glycan array binding signal (z-score) [18]: -0.734 | glycan array binding signal (z-score) (Fuc(a1-2)[Gal(a1-3)]Gal): -0.006 | glycan array binding signal (z-score) [19]: -0.182 | glycan array binding signal (z-score) [20]: -0.015 | glycan array binding signal (z-score) [21]: -0.307 | glycan array binding signal (z-score) [22]: -0.389 | glycan array binding signal (z-score) [23]: 0.747 | glycan array binding signal (z-score) [24]: -0.631 | glycan array binding signal (z-score) [25]: -0.614 | glycan array binding signal (z-score) [26]: -0.342 | glycan array binding signal (z-score) [27]: -0.041 | glycan array binding signal (z-score) [28]: -0.95
